These are yes or no findings as the source states them, for the method shown. In cells and extracts the contact can be indirect. Some binding calls cover weakened binding; strength is not graded here.
Target: glycogen synthase kinase 3β (human (endogenous in 293T)) (UniProt P49841)
Assay: co-IP; endogenous proteins of 293T cells; precipitated with a GSK3β antibody, PKG2 detected by western blot; cells treated with Wnt3a alone or with other test agents before lysis; standard protocols

Sequences of proteins named here, by UniProt entry; tags and fusion partners are left off.
UniProt P49841: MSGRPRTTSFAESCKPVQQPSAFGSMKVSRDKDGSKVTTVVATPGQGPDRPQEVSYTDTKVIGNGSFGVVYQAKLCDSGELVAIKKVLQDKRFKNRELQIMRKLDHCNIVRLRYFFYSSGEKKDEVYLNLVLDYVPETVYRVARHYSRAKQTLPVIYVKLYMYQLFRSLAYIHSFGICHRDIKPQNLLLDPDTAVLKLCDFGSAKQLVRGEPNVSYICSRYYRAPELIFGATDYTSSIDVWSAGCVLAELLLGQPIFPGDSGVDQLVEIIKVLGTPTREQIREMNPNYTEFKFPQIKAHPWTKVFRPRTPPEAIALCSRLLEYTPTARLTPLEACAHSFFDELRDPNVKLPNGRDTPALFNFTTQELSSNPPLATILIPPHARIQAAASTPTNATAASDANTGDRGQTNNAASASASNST

binding: binds
B1: cGMP-dependent protein kinase 2 (protein, UniProt Q13237 1-762)
chain: MGNGSVKPKHSKHPDGHSGNLTTDALRNKVTELERELRRKDAEIQEREYHLKELREQLSKQTVAIAELTEELQNKCIQLNKLQDVVHMQGGSPLQASPDKVPLEVHRKTSGLVSLHSRRGAKAGVSAEPTTRTYDLNKPPEFSFEKARVRKDSSEKKLITDALNKNQFLKRLDPQQIKDMVECMYGRNYQQGSYIIKQGEPGNHIFVLAEGRLEVFQGEKLLSSIPMWTTFGELAILYNCTRTASVKAITNVKTWALDREVFQNIMRRTAQARDEQYRNFLRSVSLLKNLPEDKLTKIIDCLEVEYYDKGDYIIREGEEGSTFFILAKGKVKVTQSTEGHDQPQLIKTLQKGEYFGEKALISDDVRSANIIAEENDVACLVIDRETFNQTVGTFEELQKYLEGYVANLNRDDEKRHAKRSMSNWKLSKALSLEMIQLKEKVARFSSSSPFQNLEIIATLGVGGFGRVELVKVKNENVAFAMKCIRKKHIVDTKQQEHVYSEKRILEELCSPFIVKLYRTFKDNKYVYMLLEACLGGELWSILRDRGSFDEPTSKFCVACVTEAFDYLHRLGIIYRDLKPENLILDAEGYLKLVDFGFAKKIGSGQKTWTFCGTPEYVAPEVILNKGHDFSVDFWSLGILVYELLTGNPPFSGVDQMMTYNLILKGIEKMDFPRKITRRPEDLIRRLCRQNPTERLGNLKNGINDIKKHRWLNGFNWEGLKARSLPSPLQRELKGPIDHSYFDKYPPEKGMPPDELSGWDKDF
